In patent US7544481 (REGENTS OF THE UNIVERSITY OF MICHIGAN, dated 2009):
Results are given in words; binding and its absence hold for the method and conditions named. In cells and extracts the contact can be indirect. Some entries that bind do so weakly or less than the wild type. For some of these results: Where a sequence is shown, tags or fusion partners need not be part of it.

The chains behind the UniProt entries cited, without tags or fusion partners. Where a name states a change or a piece, a line headed by the entry shows the natural chain unless it says otherwise. A line that says so, or that is headed by a name, gives the form on record, which may keep a tag or linker. Residues count along the entry.
UniProt P25942: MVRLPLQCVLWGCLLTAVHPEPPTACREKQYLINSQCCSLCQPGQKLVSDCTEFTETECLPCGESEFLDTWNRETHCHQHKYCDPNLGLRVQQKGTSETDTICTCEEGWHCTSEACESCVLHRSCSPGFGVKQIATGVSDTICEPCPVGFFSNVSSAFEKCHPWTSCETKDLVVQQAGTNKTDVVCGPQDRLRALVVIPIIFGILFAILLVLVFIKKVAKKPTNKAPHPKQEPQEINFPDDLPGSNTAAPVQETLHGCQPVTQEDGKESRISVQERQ
native CD40 (full-length): residues 21-277 of P25942
GSTCD40T (GST fused to the native CD40 cytoplasmic domain): residues 216-277 of P25942

Legend:
[1] = target: GSTCD40T (GST fused to the native CD40 cytoplasmic domain) (human) (UniProt P25942); assay: GST pull-down of in vitro translated 35S-labeled CD40bp, autoradiography
[2] = target: native CD40 (full-length) (human) (UniProt P25942); assay: co-immunoprecipitation with endogenous CD40 from transfected BJAB B cells, then re-immunoprecipitation with anti-HA
[3] = target: native CD40 (full-length) (human) (UniProt P25942); assay: co-immunoprecipitation with anti-CD40 antibody from cotransfected 293T cells, confirmed by re-immunoprecipitation with anti-HA
[4] = target: native CD40 (full-length) (human) (UniProt P25942); assay: co-immunoprecipitation from transfected 293T and BJAB cells (figure legend)

Binder	binding [1]	binding [2]	binding [3]	binding [4]
in vitro translated [35S]methionine-labeled CD40bp (protein, [35S]methionine label) MESSKKMDSPGALQTNPPLKLHTDRSAGTPVFVPEQGGYKEKFVKTVEDKYKCEKCHLVLCSPKQTECGHRFCESCMAALLSSSSPKCTACQESIVKDKVFKDNCCKREILALQIYCRNESRGCAEQLMLGHLVHLKNDCHFEELPCVRPDCKEKVLRKDLRDHVEKACKYREATCSHCKSQVPMIALQKHEDTDCPCVVVSCPHKCSVQTLLRSELSAHLSECVNAPSTCSFKRYGCVFQGTNQQIKAHEASSAVQHVNLLKEWSNSLEKKVSLLQNESVEKNKSIQSLHNQICSFEIEIERQKEMLRNNESKILHLQRVIDSQAEKLKELDKEIRPFRQNWEEADSMKSSVESLQNRVTELESVDKSAGQVARNTGLLESQLSRHDQMLSVHDIRLADMDLGFQVLETASYNGVLIWKIRDYKRRKQEAVMGKTLSLYSQPFYTGYFGYKMCARVYLNGDGMGKGTHLSLFFVIMRGEYDALLPWPFKQKVTLMLMDQGSSRRHLGDAFKPDPNSSSFKKPTGEMNIASGCPVFVAQTVLENGTYIKDDTIFIKVIVDTSDLPDP	binds			
HA epitope-tagged CD40bp (protein) YPYDVPDYAMESSKKMDSPGALQTNPPLKLHTDRSAGTPVFVPEQGGYKEKFVKTVEDKYKCEKCHLVLCSPKQTECGHRFCESCMAALLSSSSPKCTACQESIVKDKVFKDNCCKREILALQIYCRNESRGCAEQLMLGHLVHLKNDCHFEELPCVRPDCKEKVLRKDLRDHVEKACKYREATCSHCKSQVPMIALQKHEDTDCPCVVVSCPHKCSVQTLLRSELSAHLSECVNAPSTCSFKRYGCVFQGTNQQIKAHEASSAVQHVNLLKEWSNSLEKKVSLLQNESVEKNKSIQSLHNQICSFEIEIERQKEMLRNNESKILHLQRVIDSQAEKLKELDKEIRPFRQNWEEADSMKSSVESLQNRVTELESVDKSAGQVARNTGLLESQLSRHDQMLSVHDIRLADMDLGFQVLETASYNGVLIWKIRDYKRRKQEAVMGKTLSLYSQPFYTGYFGYKMCARVYLNGDGMGKGTHLSLFFVIMRGEYDALLPWPFKQKVTLMLMDQGSSRRHLGDAFKPDPNSSSFKKPTGEMNIASGCPVFVAQTVLENGTYIKDDTIFIKVIVDTSDLPDP		binds	binds	binds
